# This is one part of the list.
# Amino acid sequences for entries named in this document (tags omitted). A change or cut given only in a name is not applied to a line headed by its entry.
# UniProt Q05469: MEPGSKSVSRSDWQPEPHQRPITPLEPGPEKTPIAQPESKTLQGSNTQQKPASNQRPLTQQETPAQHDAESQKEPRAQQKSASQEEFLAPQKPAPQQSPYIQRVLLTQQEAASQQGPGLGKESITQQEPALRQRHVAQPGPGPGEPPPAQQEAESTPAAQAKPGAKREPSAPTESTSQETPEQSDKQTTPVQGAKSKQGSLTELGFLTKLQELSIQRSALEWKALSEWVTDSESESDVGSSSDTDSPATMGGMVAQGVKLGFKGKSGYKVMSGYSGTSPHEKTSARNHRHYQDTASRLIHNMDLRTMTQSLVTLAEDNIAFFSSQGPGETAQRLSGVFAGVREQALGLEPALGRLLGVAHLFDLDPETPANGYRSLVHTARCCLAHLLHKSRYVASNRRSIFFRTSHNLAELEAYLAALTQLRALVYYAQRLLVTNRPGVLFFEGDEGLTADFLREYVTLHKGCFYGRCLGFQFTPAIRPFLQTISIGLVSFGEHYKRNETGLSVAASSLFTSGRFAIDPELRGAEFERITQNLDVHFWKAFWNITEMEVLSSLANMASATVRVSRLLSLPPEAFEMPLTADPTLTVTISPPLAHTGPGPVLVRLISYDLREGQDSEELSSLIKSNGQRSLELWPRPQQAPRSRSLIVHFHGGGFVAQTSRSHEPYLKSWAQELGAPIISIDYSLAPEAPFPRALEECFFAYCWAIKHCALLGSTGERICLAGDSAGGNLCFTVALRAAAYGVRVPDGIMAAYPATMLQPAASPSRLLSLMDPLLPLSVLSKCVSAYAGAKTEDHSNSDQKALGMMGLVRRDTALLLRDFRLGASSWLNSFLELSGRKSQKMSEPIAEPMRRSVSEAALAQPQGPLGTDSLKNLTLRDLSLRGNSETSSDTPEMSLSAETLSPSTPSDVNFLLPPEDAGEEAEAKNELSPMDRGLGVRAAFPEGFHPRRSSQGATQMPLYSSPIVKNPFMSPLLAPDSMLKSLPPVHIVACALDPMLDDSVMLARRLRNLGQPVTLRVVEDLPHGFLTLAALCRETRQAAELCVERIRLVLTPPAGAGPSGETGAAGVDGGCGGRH
# Target: LIPE_Q05469_991_SLPPVHIVACALDPMLDDSVMLAR (UniProt Q05469)
# Experiment: probe-labelled cysteine peptide fold change vs DMSO (competition) (log2 fold change); higher = less target engagement (more negative = stronger competition)
# Conditions: THP-1, incubation time: 4 h
# 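Further: competitive profiling in live THP-1 cells: cysteine peptides tagged with an iodoacetamide desthiobiotin (IA-DTB) probe, intensity after compound treatment relative to DMSO-treated cells.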
compound,measurement,setting,value
Cc1cc(C(=O)N2CCCN(C(=O)CCl)CC2)ccc1-c1ccccc1 [compound 10],probe-labelled cysteine peptide fold change,10 µM,0.354
same,probe-labelled cysteine peptide fold change,50 µM,0.241
